Test results from patent US20250163183A1.
No constants are given. Whether binding was seen depends on the method and setting. Some results given as binding are weak or reduced against the parent protein; the word gives no strength.

Protein sequences, listed by entry. Tags and fused reporters are not part of them. Lines headed by an entry give the natural chain unless they say otherwise; changes in a name come on top.
UniProt P04070: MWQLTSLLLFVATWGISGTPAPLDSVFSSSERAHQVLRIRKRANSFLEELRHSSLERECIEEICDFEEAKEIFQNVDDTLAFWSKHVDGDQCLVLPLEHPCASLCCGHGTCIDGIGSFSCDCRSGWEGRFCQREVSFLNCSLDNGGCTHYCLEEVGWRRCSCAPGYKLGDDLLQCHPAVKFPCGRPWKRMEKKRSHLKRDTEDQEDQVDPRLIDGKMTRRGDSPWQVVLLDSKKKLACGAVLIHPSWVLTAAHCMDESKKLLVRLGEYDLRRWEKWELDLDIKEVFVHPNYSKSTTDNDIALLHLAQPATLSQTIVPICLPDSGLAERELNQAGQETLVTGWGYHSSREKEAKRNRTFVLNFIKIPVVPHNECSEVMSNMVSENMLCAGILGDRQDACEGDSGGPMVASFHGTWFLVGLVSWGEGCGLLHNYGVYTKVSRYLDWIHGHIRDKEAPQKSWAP

Tests used:
[1] = molecular target: human activated protein C (APC) (human) (UniProt P04070); test: ELISA
[2] = molecular target: human activated protein C (APC) (human) (UniProt P04070); test: ELISA, coated APC
[3] = molecular target: human activated protein C (APC) (human) (UniProt P04070); test: ELISA screen, APC-coated wells, OD450, n=2 [Continued]
[4] = molecular target: human activated protein C (APC) (human) (UniProt P04070); test: ELISA, APC coated at 10 µg/mL, nanobody 2 µg/mL, HRP-anti-V5, n=3
[5] = molecular target: human activated protein C (APC) (human) (UniProt P04070); test: ELISA screen, APC-coated wells, OD450, n=2
[6] = molecular target: human activated protein C (APC) (human) (UniProt P04070); test: BLI sandwich binning

Measured: binding

B1: LP10 (SR16983-R3-P3-E06) (VHH, not shown: small tags and cut ends)
VHH: QVQLVESGGGLVQAGGSLRLSCAASGTIESINDMGWYRQAPGKQRELVATVSSSGMTNYADSAKGRFTISRDNAKNTMYLQMNSLKPEDTAVYYCKAHISRSYYYDSLGYDYWGQGTQVTVSS
binds: [1] | [2] | [3] | [4]

B2: LP18 (SR16983-R4-P1-A11) (VHH, not shown: small tags and cut ends)
VHH: QLQLVESGGGLVQPGGSLRLSCAASGFTFSTKWMYWVRQGPGKGLERVAAIDAGGTSTYYADSVKGRFTISRDNSENTVYLQMNSLESADTAVYYCARSEGGLFRGRGTQVTVSA
binds: [1] | [2] | [3] | [4]

B3: LP3 (SR16983-R2-P4-E09) (VHH, not shown: small tags and cut ends)
VHH: QVQLVESGGGLVQPGGSLTLSCAASGTIESINDMGWYRQAPGKQRELVAAITSGGSTNYADSVKGRFTISRDNAKNTVYLQMNSLKPEDTAVYYCNAEVKRHYYYDSAGYRYWGQGTQVTVSS
binds: [1] | [2] | [3] | [4]

B4: LP9 (SR16983-R3-P3-B05) (VHH, not shown: small tags and cut ends)
VHH: EVQLVESGGGLVQAGGSLRLSCAASGRTFVGSYVMGWFRQAPGKEREFVAASSRSTGNTVYLDSVKGRFTVSRDDAKNTLYLQMNSLKTEDTAVYYCATRASINYNAATWPYWGQGTQVTVSS
binds: [1] | [2] | [3] | [4]

B5: LP11 (SR16983-R3-P3-F03) (VHH, not shown: small tags and cut ends)
VHH: QLQLVESGGGLAQAGGSLRLSCAASGRTFVGSYVMGWFRQAPGKEREFVAASSRSTGNTVYLDSVKGRFTISRDDAKNTLFLQMNRLKPEDTAVYYCATRASVNYNYAAWPYWGQGTQVTVSS
binds: [1] | [2] | [3] | [4]

B6: SR16983-R3P2A9 (VHH)
VHH: QVQLVESGGGLVQAGGSLRLSCAASGRTVGSYVMGWFRQAPGKERELLAASSRSTGNTVYADSVKGRFTISRDDAKNTVFLQMNSLKPEDTAVYYCAARASINYNYANWPYWGQGTQVTVSP
binds: [5] | [1]

B7: SR16983-R3P2E7 (VHH)
VHH: QLQLVESGGGLVQAGGSLRLSCVASGTTFTIEDIGWYRLAPGKQRELVAIISGGNTNYADSVKGRFTISRDNAKNTVFLQMNSLKPEDTAVYYCNARTKATAKWGRGIQVTVSS
binds: [5] | [1]

B8: LP4 (SR16983-R3-P2-A06) (VHH, not shown: small tags and cut ends)
VHH: QLQLVESGGGLVQAGGSLRLSCAASGSTFNFRIMGWYRQVPGKQRELVAVINSGGSADYTEDVKGRFTISRDDAKSTMYLQMNSLKPEDTAVYYCHAKKVEPTLFTTTYWGQGTQVTVSS
binds: [1] | [2] | [3] | [4]

B9: LP15 (SR16983-R3-P5-H05) (VHH, not shown: small tags and cut ends)
VHH: QLQLVESGGGLVQAGGSLRLSCAASGTTFSFVYMGWYRQAPGNQRDLVARISSDGSTNYADSVKGRFTISGDNAKNTVYLQMNSLKPEDTARYYCFWNGHTNKWGQGTQVTVSS
binds: [5] | [1] | [2] | [4]

B10: LP13 (SR16983-R3-P3-G08) (VHH, not shown: small tags and cut ends)
VHH: QLQLVESGGGLVQAGGSLRLSCVASGTTFTIEDIGWHRQAPGKQLELVAVSRGGGNADYSDSVKGRFTISRDNAKTTVYLQMSSLKPEDTAVYYCIAKTKATTKWGRGIQVTVSS
binds: [1] | [2] | [3] | [4]

B11: LP20 (SR16983-R4-P1-B07) (VHH, not shown: small tags and cut ends)
VHH: QLQLVESGGGLVQAGGSLRLSCTASGSTVRVTAGGWYRQTPGNERELVADIDNGGSTTYADSVKGRFTISRDNAKNAVDLQMNSLKPEDTAVYRCFVIAIPDSAPRPRAYWGQGTEVTVSS
binds: [1] | [2] | [3] | [4]

B12: SR16983-R2P1C11 (VHH)
VHH: QLQLVESGGGLVQSGGSLRLSCTASGSTVRVTAGGWYRQAPGNERELVADIDNGGRPTYADSVKGRFTISRDNAKNAVDLQMNNLKPEDTAVYYCFVIAIPDSAPRPRAYWGQGTQVTVSS
binds: [5] | [1]

B13: LP12 (SR16983-R3-P3-F06) (VHH, not shown: small tags and cut ends)
VHH: QLQLVESGGGLVQAGDSLRLSCTSSGLTASTYAMAWFRQAPGKEREFVAVVDWKGDTTYANSVKGRFTLSRDNGKNTNYLQMNSLQPEDTALYYCAARGSPGYVARLYAHWGRGTQVTVSS
binds: [1] | [2] | [3] | [4]

B14: LP7 (SR16983-R3-P2-H08) (VHH, not shown: small tags and cut ends)
VHH: EVQLVESGGGLVQAGGSLRLSCAASGTTFDMNSMGWYRQGPGFKRELVATISMGGDTNYADSVKGRFTISRANAKNTVYMQMNSLKPEDTAVYYCNAERIWPNRRTFWGQGTQVTVSS
binds: [6] | [1] | [2] | [3] | [4]

B15: LP19 (SR16983-R4-P1-B06) (VHH, not shown: small tags and cut ends)
VHH: QLQLVESGGGEVQAGESLRLSCAASGSTFSINVFAWYRDYPGKQRELVAVIGRSGTPRYADSVKGRFTISRDNAKNTVYLQMNSLEPEDTAVYYCHLGDTWGQGTQVTVSS
binds: [5] | [1] | [2] | [4]

B16: LP8 (SR16983-R3-P3-A04) (VHH, not shown: small tags and cut ends)
VHH: QLQLVESGGGLVEAGGSLRLSCAASGRTFSSGALGWFRQAPGKEREFVATIRWSDERTQYSEFVKGRFTISRDNAKNTVYLQMNNLQPEDTAVYYCRSTVGNLLYWGQGTQVTVSS
binds: [5] | [1] | [2] | [4]

B17: LP2 (SR16983-R2-P3-H10) (VHH, not shown: small tags and cut ends)
VHH: QVQLVESGGGLVQAGGSLRLSCAASGRPISAYTWAWFRQAPGKEREFVAAITSSAGTTYYADSVRGRFTISRDNAENTVYLRMNTLKPEDTAVYYCAADDQGDNWYDHWGQGTQVTVSS
binds: [5] | [1] | [2] | [4]
